According to publication PMC6114956:
These are yes or no findings as the source states them, for the method shown. Binding seen in cells or lysates may run through a third protein. Some entries that bind do so weakly or less than the wild type.

The chains behind the UniProt entries cited, without tags or fusion partners.
UniProt Q14247: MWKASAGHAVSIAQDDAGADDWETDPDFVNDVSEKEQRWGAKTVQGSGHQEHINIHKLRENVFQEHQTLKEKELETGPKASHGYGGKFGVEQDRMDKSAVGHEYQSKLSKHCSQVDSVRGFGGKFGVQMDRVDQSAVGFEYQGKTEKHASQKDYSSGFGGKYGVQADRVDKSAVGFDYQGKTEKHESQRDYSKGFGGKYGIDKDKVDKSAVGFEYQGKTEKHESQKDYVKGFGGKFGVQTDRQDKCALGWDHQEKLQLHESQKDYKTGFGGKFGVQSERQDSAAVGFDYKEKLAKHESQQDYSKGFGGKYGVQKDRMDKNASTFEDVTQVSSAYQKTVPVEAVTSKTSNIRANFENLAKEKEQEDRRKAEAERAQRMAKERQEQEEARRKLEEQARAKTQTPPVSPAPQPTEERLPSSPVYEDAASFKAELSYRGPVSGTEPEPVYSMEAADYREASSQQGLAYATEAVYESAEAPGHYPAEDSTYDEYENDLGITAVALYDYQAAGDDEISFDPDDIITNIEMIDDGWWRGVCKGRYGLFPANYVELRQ

Tests used:
[1] = biological target: c-Cbl (c-Casitas B lineage lymphoma), E3 ubiquitin ligase (human (endogenous in B cells of CLL patients and healthy donors)) (UniProt P22681); assay: co-IP; lysates of normal B lymphocytes (Cnt, n = 3), unstimulated; immunoprecipitated with anti-c-Cbl or anti-CIN85 antibody, blotted with anti-c-Cbl and anti-CIN85
[2] = biological target: c-Cbl (c-Casitas B lineage lymphoma), E3 ubiquitin ligase (human (endogenous in B cells of CLL patients and healthy donors)) (UniProt P22681); assay: condition: only in neoplastic B lymphocytes of CLL patients, at steady state and upon anti-IgM BCR stimulation; co-IP; lysates of leukemic B cells from CLL patients, unstimulated and after 5 minutes of anti-IgM or 3 minutes of anti-IgD (10 ng/mL); immunoprecipitated with anti-c-Cbl, anti-CIN85 or anti-Lyn antibody, blotted for the partner
[3] = biological target: c-Cbl (c-Casitas B lineage lymphoma), E3 ubiquitin ligase (human (endogenous in B cells of CLL patients and healthy donors)) (UniProt P22681); assay: co-IP; lysates of leukemic B cells of CLL patients with Cortactin overexpression (CLL#491, CLL454), unstimulated; immunoprecipitated with anti-c-Cbl, blotted with anti-c-Cbl and anti-Cortactin
[4] = biological target: c-Cbl (c-Casitas B lineage lymphoma), E3 ubiquitin ligase (human (endogenous in B cells of CLL patients and healthy donors)) (UniProt P22681); assay: condition: only in CLL patients with lower Cortactin expression; co-IP; lysates of leukemic B cells of CLL patients with lower Cortactin expression (CLL#223), unstimulated; immunoprecipitated with anti-c-Cbl, blotted with anti-c-Cbl and anti-Cortactin

Substance | binding [1] | binding [2] | binding [3] | binding [4]
CIN85, adapter protein (from UniProt Q96B97 1-665) | binds | no binding | – | –
Cortactin (from UniProt Q14247 1-550) | – | – | binds | no binding
